Measurements: patent US8124637B2, “Anthra [1, 2-d]imidazole-6,11-dione derivatives, preparation method and application thereof” (National Defense Medical Center, priority 2010, dated 2012)
Some results come without the dose or concentration used.

The compounds below were run on 60 kinds of different human cancer cells (assay: NCI 60-cell drug screen, one dose, whole panel). Conditions: over the tested cell lines, 1.00E−5 Molar.
Assay type: cell-based
Experimental: In brief, cellular protein levels were determined after 48 hours of drug exposure by sulforhodamine B colorimetry.
The screening system in United State National Cancer Institute (NCI) consists of 60 kinds of different human cancer cells, which can be used to assay the growth-inhibiting ability or cell toxicity of a compound against various cancer and tumor at a certain concentration. The NCI had selected 6 compounds synthesized above, and performed cell toxicity assay against 60 kinds of cancer cell strains (Table 2) (DTP Human Tumor Cell Line Screen), in which each compound was assayed at a certain concentration to observe its inhibition ability or cell toxicity against various kinds of cancer and tumor.
In the case of `CCN(CC)Cc1nc2ccc3c(c2[nH]1)C(=O)c1ccccc1C3=O` [CL04, 2-((diethylamino)methyl)-1H-anthra[1,2-d]imidazole-6,11-dione], the “Growth Percent, Delta” value was 79.09% and the “Growth Percent, Range” value was 114.93%. In the case of `CN(CCc1ccccn1)Cc1nc2ccc3c(c2[nH]1)C(=O)c1ccccc1C3=O` [CL07, 2-((N-methyl-2-(pyridin-2-yl)ethanamino)methyl)-1H-anthra[1,2-d]imidazole-6,11-dione], the “Growth Percent, Delta” value was 49.16% and the “Growth Percent, Range” value was 90.83%. For `O=C1c2ccccc2C(=O)c2c1ccc1nc(CN3CCCCC3)[nH]c21` [CL16, 2-((piperidin-1-yl)methyl)-1H-anthra[1,2-d]imidazole-6,11-dione], the “Growth Percent, Delta” value was 52.58% and the “Growth Percent, Range” value was 96.91%. For `CN1CCN(Cc2nc3ccc4c(c3[nH]2)C(=O)c2ccccc2C4=O)CC1` [CL24, 2-((4-methylpiperazin-1-yl)methyl)-1H-anthra[1,2-d]imidazole-6,11-dione], the “Growth Percent, Delta” value was 73.29% and the “Growth Percent, Range” value was 121.39%. `O=C1c2ccccc2C(=O)c2c1ccc1nc(CN3CCN(c4ccccc4)CC3)[nH]c21` [CL27, 2-((4-phenylpiperazin-1-yl)methyl)-1H-anthra[1,2-d]imidazole-6,11-dione] was tested, and the “Growth Percent, Delta” value was 47.04% and the “Growth Percent, Range” value was 135.50%. In the case of `O=C1c2ccccc2C(=O)c2c1ccc1nc(CN3CCN(c4ccccn4)CC3)[nH]c21` [CL28, 2-((4-(pyridin-2-yl)piperazin-1-yl)methyl)-1H-anthra[1,2-d]imidazole-6,11-dione], the “Growth Percent, Delta” value was 33.73% and the “Growth Percent, Range” value was 70.85%.
